{"sequences": {"note": "Protein sequences, listed by entry. Tags and fused reporters are not part of them. Residues count along the entry.", "UniProt P36894, residues 24-152": "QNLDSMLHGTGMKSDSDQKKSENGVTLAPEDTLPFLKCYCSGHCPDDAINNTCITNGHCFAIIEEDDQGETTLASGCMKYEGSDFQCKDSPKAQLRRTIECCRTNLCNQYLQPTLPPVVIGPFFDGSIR"}, "source": "paper PMC1802081", "binders": {"B1": {"name": "ActR-IIBECD wildtype (activin type IIB receptor ectodomain) (receptor, UniProt P27040 19-137)", "chain": "SGRGEAETRECIYYNANWELERTNQSGLERCEGEQDKRLHCYASWRNSSGTIELVKKGCWLDDFNCYDRQECVATEENPQVYFCCCEGNFCNERFTHLPEPGGPEVTYEPPPTAPTLLT"}}, "target": "BMPR-IAECD (BMP type IA receptor ectodomain) (UniProt P36894)", "test": "crystal structure; ternary complex (1:2:2) of BMP-2 L100K/N102D, BMPR-IAECD and ActR-IIBECD; crystals from 30% PEG3350, 0.1 M Tris-HCl pH 8.8, 0.2 M ammonium acetate, 21°C; both purified", "note": "No constants are given. Whether binding was seen depends on the method and setting."}
{"binder": "B1", "values": [{"measurement": "binding", "value": "no binding"}]}
